# Source: patent publication US9018171B2, “Uses of an immunomodulatory protein (GMI) from Ganoderma microsporum” (Mycomagic Biotechnology Co., Ltd., priority 2010, dated 2015)
# B1: GMI: immunomodulatory protein from Ganoderma microsporum, amino acid sequence SEQ ID NO: 3, manufactured by Mycomagic Biotechnology Co., Ltd. (protein, listed as Ganoderma microsporum)
# chain: MSDTALIFTLAWNVKQLAFDYTPNWGRGRPSSFIDTVTFPTVLTDKAYTYRVVVSGKDLGVRPSYAVESDGSQKINFLEYNSGYGIADTNTIQVYVIDPDTGNNFIVAQWN
# Tested on: NCI60 tumour cell lines
# Assay: NCI60 in vitro screening, one dose, whole panel
# Format: cell-based
# Conditions: all cell lines
molecule,measurement,value
B1,"Growth Percent, Delta",157.03%
same,"Growth Percent, Range",224.41%
